No constants are given. Whether binding was seen depends on the method and setting. Binding seen in cells or lysates may run through a third protein. Binding calls can cover weak binding; strength is not graded here. Where a sequence is shown, tags or fusion partners need not be part of it.

Sequences of proteins named here, by UniProt entry; tags and fusion partners are left off. A change or cut given only in a name is not applied to a line headed by its entry.
UniProt P02647: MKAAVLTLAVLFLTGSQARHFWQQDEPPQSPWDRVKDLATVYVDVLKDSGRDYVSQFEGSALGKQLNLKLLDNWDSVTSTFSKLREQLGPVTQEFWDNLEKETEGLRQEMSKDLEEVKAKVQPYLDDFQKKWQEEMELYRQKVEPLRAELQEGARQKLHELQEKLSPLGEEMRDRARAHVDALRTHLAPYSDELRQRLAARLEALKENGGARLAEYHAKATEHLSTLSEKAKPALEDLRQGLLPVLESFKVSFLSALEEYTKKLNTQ

Results on one substance are retold here after paper doi:10.1101/2022.08.08.503162.

For the assay, the target named is T1, GFP-SR-B1 fusion protein overexpressed in HeLa cells (UniProt Q8WTV0).
T1 sequence: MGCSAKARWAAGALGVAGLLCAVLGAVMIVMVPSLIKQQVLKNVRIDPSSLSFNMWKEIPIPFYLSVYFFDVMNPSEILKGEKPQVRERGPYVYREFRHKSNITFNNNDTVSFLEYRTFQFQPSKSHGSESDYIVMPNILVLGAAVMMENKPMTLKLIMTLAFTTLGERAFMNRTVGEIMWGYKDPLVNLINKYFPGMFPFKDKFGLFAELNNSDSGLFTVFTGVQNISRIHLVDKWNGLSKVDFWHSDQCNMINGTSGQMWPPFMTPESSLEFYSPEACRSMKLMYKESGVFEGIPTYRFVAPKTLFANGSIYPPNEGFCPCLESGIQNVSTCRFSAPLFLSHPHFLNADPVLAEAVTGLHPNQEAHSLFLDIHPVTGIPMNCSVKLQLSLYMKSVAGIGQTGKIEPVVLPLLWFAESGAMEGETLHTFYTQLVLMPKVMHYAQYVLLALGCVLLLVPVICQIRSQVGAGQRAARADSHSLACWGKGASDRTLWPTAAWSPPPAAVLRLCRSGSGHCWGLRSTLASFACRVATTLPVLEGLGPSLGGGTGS
Description: pull-down.

Turning to “recombinant wild-type apolipoprotein A1 (APOA1-WT), from ClearColi (from UniProt P02647)”, the binding entry is recorded as “binds”.
